# Test results as given in the M2OR odorant receptor database.
# Only a part is listed here, and it is no random draw. The calls were merged from several studies; some rest on single wells.
# Target: T1, UniProt Q920P1
# T1 sequence (whole entry): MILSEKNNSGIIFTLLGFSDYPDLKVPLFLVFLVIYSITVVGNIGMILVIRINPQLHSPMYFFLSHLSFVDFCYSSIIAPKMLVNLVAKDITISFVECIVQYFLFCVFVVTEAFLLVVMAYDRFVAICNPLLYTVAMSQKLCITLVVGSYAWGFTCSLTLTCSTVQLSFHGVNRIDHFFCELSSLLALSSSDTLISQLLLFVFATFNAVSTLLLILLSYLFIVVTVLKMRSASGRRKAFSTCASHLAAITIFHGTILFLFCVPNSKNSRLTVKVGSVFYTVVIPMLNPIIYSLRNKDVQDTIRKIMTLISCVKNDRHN
# Conditions: stereoisomer not certain
# Outline: (§1)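 Assay methods differ from source to source, frequently being transient luciferase assays in mammalian cell lines. For each receptor–molecule pair, the label responsive (active) applies when the original authors judged the measured signal statistically different from baseline, and non-responsive (inactive) applies otherwise.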
row,SMILES,odorant receptor agonist call
1,COc1cc(C)ccc1O,inactive
2,CC=Cc1ccc(O)c(OC)c1,inactive
3,CCCCO,inactive
4,COc1ccccc1O,inactive
5,C=C(C)C1CC=C(C)C(=O)C1 (stereo unspecified),inactive
6,CC(C)(O)CCCC1=CCC(C=O)CC1 (stereo unspecified),inactive
7,C=CCc1ccc(OC(C)=O)c(OC)c1,inactive
8,C=CCc1ccc(O)c(OC)c1,inactive

# Target: T2, UniProt Q920P2
# T2 sequence (whole entry): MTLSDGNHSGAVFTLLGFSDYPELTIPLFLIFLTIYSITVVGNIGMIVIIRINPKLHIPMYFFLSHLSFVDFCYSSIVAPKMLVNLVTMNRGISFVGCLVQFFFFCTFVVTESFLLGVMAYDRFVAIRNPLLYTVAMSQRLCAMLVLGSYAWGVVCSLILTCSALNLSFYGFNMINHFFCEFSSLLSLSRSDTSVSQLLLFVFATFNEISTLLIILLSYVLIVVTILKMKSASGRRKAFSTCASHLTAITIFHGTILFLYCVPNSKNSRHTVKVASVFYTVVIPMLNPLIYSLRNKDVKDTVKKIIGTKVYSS
# Conditions: stereoisomer not certain
# Outline: as §1
row,SMILES,odorant receptor agonist call
1,CC=Cc1ccc(O)c(OC)c1,inactive
2,CCCCO,inactive
3,COc1cc(C=O)ccc1O,active
4,COc1ccccc1O,inactive
5,C=C(C)C1CC=C(C)C(=O)C1 (stereo unspecified),inactive
6,CC(C)(O)CCCC1=CCC(C=O)CC1 (stereo unspecified),inactive
7,C=CCc1ccc(O)c(OC)c1,active

# Target: T3, UniProt Q924H8
# T3 sequence (whole entry): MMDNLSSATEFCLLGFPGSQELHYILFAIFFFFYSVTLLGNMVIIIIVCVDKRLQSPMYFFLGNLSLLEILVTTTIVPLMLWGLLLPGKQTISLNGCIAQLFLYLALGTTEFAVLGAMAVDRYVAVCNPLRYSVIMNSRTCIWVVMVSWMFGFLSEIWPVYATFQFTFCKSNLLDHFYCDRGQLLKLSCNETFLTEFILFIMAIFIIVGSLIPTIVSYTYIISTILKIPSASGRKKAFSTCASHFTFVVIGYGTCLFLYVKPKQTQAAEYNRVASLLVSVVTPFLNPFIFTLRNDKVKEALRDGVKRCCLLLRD
# Conditions: stereoisomer not certain
# Outline: as §1
row,SMILES,odorant receptor agonist call
1,CCCCO,inactive
2,CCCCCC(=O)O,inactive
3,CC(=O)OC1CC2CCC1(C)C2(C)C (stereo unspecified),inactive
4,COC(=O)c1ccccc1O,inactive
5,C=CC(C)(O)CCC=C(C)C (stereo unspecified),inactive
6,CCCCCCCC=O,inactive
7,O=C1CCCCCCCCCCCCCCO1,inactive
8,COc1cc(C=O)ccc1O,inactive
9,CC12CCC(CC1)C(C)(C)O2,inactive
10,CCCCCCC=O,inactive
11,CC1COCc2cc3c(cc21)C(C)(C)C(C)C3(C)C (stereo unspecified),inactive
12,c1cnccn1,inactive
13,CC(C)=CCCC(C)=CC=O,inactive
14,C=CCc1ccc(OC)c(OC)c1,inactive
15,COc1ccccc1O,inactive
16,CC(C)C=O,inactive
17,CCCCCC(C)=O,inactive
18,CCCCCCCCCC=O,inactive
19,C=C(C)C1CC=C(C)C(=O)C1 (stereo unspecified),inactive
20,CC(=O)c1ccccc1,inactive
21,CCCCCOC(C)=O,inactive
22,CC(=O)C(C)=O,inactive
23,CCCCCCCCC=O,inactive
24,CC(C)(O)CCCC1=CCC(C=O)CC1 (stereo unspecified),active
25,CC(C)CC(=O)O,inactive
26,C=CCc1ccc(O)c(OC)c1,inactive
